Results are given in words; binding and its absence hold for the method and conditions named. Sequences can lack the tags named with a protein.
Target: Phytoene desaturase CRTI from Pantoea ananatis, C-terminal His6 fusion (Pantoea ananatis) (UniProt P21685)
Test: SEC; gel permeation chromatography on HiLoad 16/60 Superdex 200 PG in 50 mM Tris-HCl pH 8.0, 100 mM NaCl, 1 mM TCEP, 1 ml/min; no detergent; both purified

B1: Phytoene desaturase CRTI from Pantoea ananatis, C-terminal His6 fusion (enzyme, UniProt P21685 1-492)
chain: MKPTTVIGAGFGGLALAIRLQAAGIPVLLLEQRDKPGGRAYVYEDQGFTFDAGPTVITDPSAIEELFALAGKQLKEYVELLPVTPFYRLCWESGKVFNYDNDQTRLEAQIQQFNPRDVEGYRQFLDYSRAVFKEGYLKLGTVPFLSFRDMLRAAPQLAKLQAWRSVYSKVASYIEDEHLRQAFSFHSLLVGGNPFATSSIYTLIHALEREWGVWFPRGGTGALVQGMIKLFQDLGGEVVLNARVSHMETTGNKIEAVHLEDGRRFLTQAVASNADVVHTYRDLLSQHPAAVKQSNKLQTKRMSNSLFVLYFGLNHHHDQLAHHTVCFGPRYRELIDEIFNHDGLAEDFSLYLHAPCVTDSSLAPEGCGSYYVLAPVPHLGTANLDWTVEGPKLRDRIFAYLEQHYMPGLRSQLVTHRMFTPFDFRDQLNAYHGSAFSVEPVLTQSAWFRPHNRDKTITNLYLVGAGTHPGAGIPGVIGSAKATAGLMLEDLI
binding: no binding

Source: publication PMC3382138, “On the Structure and Function of the Phytoene Desaturase CRTI from Pantoea ananatis, a Membrane-Peripheral and FAD-Dependent Oxidase/Isomerase” (PLoS ONE, 2012)
